Values of other authors, collected in patent US20240415796A1, “EYEDROPS FOR AMELIORATING OR PREVENTING RETINAL CIRCULATION DISORDER AND RETINAL NEUROVASCULAR COUPLING DISORDER” (NIHON UNIVERSITY, priority 2020, published 2024).
For at least one compound, name, drawing or mass did not settle the structure.

Test system: mice
Details: gavage administration to mice

For `CC(C)OC(=O)C(C)(C)Oc1ccc(C(=O)c2ccc(Cl)cc2)cc1` [fenofibrate], the retinal neovascularization is given as “suppressed”.
